Some of the results follow.

The chains behind the UniProt entries cited, without tags or fusion partners.
UniProt Q0JBA9, entry or part of it: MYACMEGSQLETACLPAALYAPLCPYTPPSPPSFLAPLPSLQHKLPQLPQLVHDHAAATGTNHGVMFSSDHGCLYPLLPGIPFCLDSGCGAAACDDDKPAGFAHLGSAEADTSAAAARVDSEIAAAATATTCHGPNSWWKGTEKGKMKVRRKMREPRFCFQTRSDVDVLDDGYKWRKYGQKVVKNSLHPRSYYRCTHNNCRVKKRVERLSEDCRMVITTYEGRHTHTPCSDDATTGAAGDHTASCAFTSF

Binding signal data for 42 sequences are collected here from publication PMC7819943, “Rice protein-binding microarrays: a tool to detect cis-acting elements near promoter regions in rice”.

The target of this test is OsWRKY34 (Oryza sativa, UniProt Q0JBA9 1-250). In words: protein-binding microarray (RPBM); PBS, 2% BSA, 51.3 ng/ul salmon testes DNA, 50 uM zinc acetate, 200 nM TF, 25 C, 1 h; high values mean tight binding. Particulars: protein: recombinant; tags: N-terminal polyhistidine and DsRed monomer fusion (pET32a); label: CyDye5-dUTP incorporated in the synthesized complementary strand; 3' TTTTT single-stranded linker to array surface; dsDNA, one strand shown. The method, boiled down:
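The binding signal for each feature is its fluorescence intensity in arbitrary units. An Axon 4000B scanner was used to read a custom Agilent array that had been made double-stranded with Cy5-dUTP primer extension, blocked with 2% BSA, incubated at 25 °C for 1 h with 200 nM protein in PBS, 2% BSA, salmon testes DNA and 50 µM zinc acetate, and washed. The protein was an N-terminal polyhistidine–DsRed transcription factor fusion from E. coli BL21-CodonPlus, purified on Ni–NTA.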
In the case of “CTGCCGCCGCCGTCATCTCCGACGCTCCTCCGTGGCGGCCCGGAGTCACCTAGTGCAG”, the binding signal was 9090 fluorescence intensity (a.u.).
Consider “GCTGTTACCATTGGCCATATTTGCGATGCATTATTATGCCCGGAGTCACCTAGTGCAG”, for which the binding signal was 8030 fluorescence intensity (a.u.).
To “CGGCCCCGGCGGTTTGGAAACCCTACTTATCGTTCAACTACGGAGTCACCTAGTGCAG” belongs 9860 fluorescence intensity (a.u.); to “ACCGTCAGCCTTCACTCACTCACACTATCACCGCGACACCCGGAGTCACCTAGTGCAG”, 8870 fluorescence intensity (a.u.).
As for “CTAATTCCTTCATTTTCGTTTCTTTTTTCCTCGATGTTGCCGGAGTCACCTAGTGCAG”, the figure is 9530 fluorescence intensity (a.u.).
To “TTGGTTTCGGTCCGAGGATTTCTAGTTTGGTGGAGAATTACGGAGTCACCTAGTGCAG” belongs 9150 fluorescence intensity (a.u.).
“GCAGGCGGCGGAGGATTTTTGGGAGGGGAAAACGGCGAGTCGGAGTCACCTAGTGCAG”: the binding signal is 8540 fluorescence intensity (a.u.).
To “GAAATACTCCAATGGGTTAACTTAGGGTCGGGAAGGGGAGCGGAGTCACCTAGTGCAG” belongs 10100 fluorescence intensity (a.u.); to “GATCAGCTGATTGGTTGGTTTGGTTGTTGTGGTGGAGATGCGGAGTCACCTAGTGCAG”, 12200 fluorescence intensity (a.u.).
To “ACCGTCCGCGCCACATCGGAGCTCATCGCCGGCGGCCTCGCGGAGTCACCTAGTGCAG” belongs 8760 fluorescence intensity (a.u.); to “TAGTCTTTGTCGTTTCCATGTATAACTCTATTTATCTTTCCGGAGTCACCTAGTGCAG”, 12400 fluorescence intensity (a.u.).
“GGCCGGAGAGATTTTGTGGGGAGGAGGAGGATTGGTTGACCGGAGTCACCTAGTGCAG”: the binding signal was 11400 fluorescence intensity (a.u.).
As for “TGTACTCATGACTTATATTTTTAATTTTTTTAAAAAATTTCGGAGTCACCTAGTGCAG”, the figure is 10000 fluorescence intensity (a.u.); as for “CGTCTCCGGCTCTCCGCTACTAGGGTTTGCGCGCGCAAGTCGGAGTCACCTAGTGCAG”, 8920 fluorescence intensity (a.u.); as for “AATTTTTTTTGCCGCTCCTGATGTTTTATGCGCAAAACGTCGGAGTCACCTAGTGCAG”, 8060 fluorescence intensity (a.u.).
To “TCATCTCTAGCCACTTCGCTTCAGCTTTTCTTCTTTCTTGCGGAGTCACCTAGTGCAG” belongs 9220 fluorescence intensity (a.u.); to “ATTTTCGGGTGTCCTGTAGCAATTTTGCCTATTAAGTACTCGGAGTCACCTAGTGCAG”, 8320 fluorescence intensity (a.u.); to “GTAGGGGTGGTGGATTTTTTTTTATTTGCTGAGATGATTTCGGAGTCACCTAGTGCAG”, 20600 fluorescence intensity (a.u.).
To “ATTTCTCCACTACTTATTTGTTTCAACCAATCATATCCATCGGAGTCACCTAGTGCAG” belongs 8840 fluorescence intensity (a.u.); to “CTTCTCTCATCATTTGCAGGCACTAGTGATTAGCGCCACACGGAGTCACCTAGTGCAG”, 10100 fluorescence intensity (a.u.); to “GATGTTTCCGTGTGTATTCAATTTTCGATATTGTTTTTCGCGGAGTCACCTAGTGCAG”, 10400 fluorescence intensity (a.u.).
For “CCCTTTCTTCTTCTTTTTTCTTTTTCTGAACGCGCACAATCGGAGTCACCTAGTGCAG”, the binding signal is 10300 fluorescence intensity (a.u.).
As for “ATCTGTATTGTATGTTCAGTCATTCCTGCTACCCCATTTACGGAGTCACCTAGTGCAG”, the figure is 8430 fluorescence intensity (a.u.); as for “ATCCTTCTGGAGTAAGGTTTTGTGCTGGGTGGATTTGGGACGGAGTCACCTAGTGCAG”, 8500 fluorescence intensity (a.u.).
To “TTGTCTCAAGACTTCTCTGGCTATCTCATTGCTTAATTGGCGGAGTCACCTAGTGCAG” belongs 8690 fluorescence intensity (a.u.).
To “CATATCCACTTCGCCTCTTCCCTTTGATGTTGCGAGTGAACGGAGTCACCTAGTGCAG” belongs 9740 fluorescence intensity (a.u.); to “ACCAATTTCCAGTTAACCGCCGTCTGAATTCATTTATCCACGGAGTCACCTAGTGCAG”, 9670 fluorescence intensity (a.u.).
Turning to “GAGATCCTTCGCTGTCACTGTATCATGTCCTAAATGAGTCCGGAGTCACCTAGTGCAG”, the binding signal is 9020 fluorescence intensity (a.u.).
For the sequence “TCCTTGCTCGCGAATCCACTCGCGCGTGCGTGGGCCCCACCGGAGTCACCTAGTGCAG”, the binding signal is 8380 fluorescence intensity (a.u.).
To “CTCACCATCGCCGGCCGTCGACCCAATCCCAGCGACCATGCGGAGTCACCTAGTGCAG” belongs 10300 fluorescence intensity (a.u.); to “CTAATCATTTCACACTAGTTTTCTTTCTTTCTCCTACATGCGGAGTCACCTAGTGCAG”, 8620 fluorescence intensity (a.u.).
As for “TTAGACCACCCTAATTTTCTTTTCTAGTTGTATCTATCTTCGGAGTCACCTAGTGCAG”, the figure is 8920 fluorescence intensity (a.u.); as for “AGCTTTATTCCTCGAGGCCCATTAGTCCCTTCGTTTCCATCGGAGTCACCTAGTGCAG”, 8210 fluorescence intensity (a.u.).
To “GTCCTACTTGTTATACACACCCTGCGTCTTGAAGTCCGTACGGAGTCACCTAGTGCAG” belongs 10100 fluorescence intensity (a.u.); to “AGACTATCATCTTGAGCTTATTCTTCCATTTGCTCCATCTCGGAGTCACCTAGTGCAG”, 8950 fluorescence intensity (a.u.); to “AGAACTTTTCCAGGTAGTTGCACCGGTGCTCCAGTTTGAACGGAGTCACCTAGTGCAG”, 8110 fluorescence intensity (a.u.).
Turning to “TATTTTCATTTACACAACAGCTAACTTTACATTTCAATTTCGGAGTCACCTAGTGCAG”, the binding signal was 9310 fluorescence intensity (a.u.).
As for “CTTCTCTTCATTCATGTAACATGCACTTTCACTCGTACTGCGGAGTCACCTAGTGCAG”, the figure is 10600 fluorescence intensity (a.u.); as for “CCGCTGAGCCTGAGTCTCCTGGTCCACGTACACCCGTGGACGGAGTCACCTAGTGCAG”, 8690 fluorescence intensity (a.u.); as for “TCCCACCTTGCGCATCTCACCACCCTTACCTTGGCCTCCTCGGAGTCACCTAGTGCAG”, 8540 fluorescence intensity (a.u.).
For “TTATGTTAACCTCGTACTACAAGTTTTCTCCTTATAAAAACGGAGTCACCTAGTGCAG”, the binding signal was 9820 fluorescence intensity (a.u.).
For “GGTCGTGTCATGTCGTTCTTGTTTTACTTCCTGTGAAGTTCGGAGTCACCTAGTGCAG”, the binding signal was 14800 fluorescence intensity (a.u.).
